Data as given in PubChem BioAssay AID504764 (Drosophila RNAi Screening Center, 2011)

Screen: 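Knock-downs that raise or lower a Notch target reporter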 (primary screen)
Cells: Drosophila Kc167 cells
Knock-down reagent: long dsRNA against Drosophila genes
Time to read-out: about 5 days (4 days dsRNA, then 24 h after transfection)
Treatment: transfection of constitutively active membrane-tethered Notch lacking the extracellular domain, read 24 h later
Detection: 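Firefly luciferase from an E(spl)m3 reporter with active Notch, plus control-promoter and uninduced reporter wells for normalisation; unnormalised counts, duplicate wells a and b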
Scale: induced reporter light, run 1, well a and induced reporter light, run 1, well b: higher = more light from the Notch target reporter with active Notch; control promoter light, run 1, well a and control promoter light, run 1, well b: higher = more light from the viral control promoter (cell number, transfection, viability); uninduced reporter light, run 1, well a: higher = more light from the Notch target reporter without active Notch
Active means: 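Wells with low control signal or poorly matching duplicates excluded; duplicates averaged; per source plate, z beyond ±2 for induced/control log2 ratio or beyond ±1.8 for induced/uninduced marks a hit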
Calls: active = modifier hit (raised or lowered Notch signal); inactive = not a hit
In all, the deposit lists about 22,000 reagents; this is a random part of those that have a named target and a result. Over the whole deposit, 403 (1.9%) got an active call. 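Unnormalised raw counts per well; ratio z-scores behind the hit calls and whether each hit raises or lowers signal are not deposited.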 A number with no mark means an inactive call. The numbers tell different reagents against one gene apart. Not given: the amount of reagent.

With knock-down of e(y)2, the screen gave induced reporter light, run 1, well a = 69920; induced reporter light, run 1, well b = 80895; control promoter light, run 1, well a = 1.27e5; control promoter light, run 1, well b = 1.21e5; uninduced reporter light, run 1, well a = 5795.
For CG10674 the deposit lists induced reporter light, run 1, well a = 2.05e5; induced reporter light, run 1, well b = 1.88e5; control promoter light, run 1, well a = 1.79e5; control promoter light, run 1, well b = 2.69e5; uninduced reporter light, run 1, well a = 8360.
Mipp2 gave induced reporter light, run 1, well a = 1.85e5; induced reporter light, run 1, well b = 2.02e5; control promoter light, run 1, well a = 2.38e5; control promoter light, run 1, well b = 2.48e5; uninduced reporter light, run 1, well a = 15285.
Silencing of bard came out at: induced reporter light, run 1, well a = 1.74e5; induced reporter light, run 1, well b = 1.87e5; control promoter light, run 1, well a = 2.06e5; control promoter light, run 1, well b = 2.13e5; uninduced reporter light, run 1, well a = 13115.
Against CG14756 the deposit lists induced reporter light, run 1, well a = 2.04e5; induced reporter light, run 1, well b = 2.12e5; control promoter light, run 1, well a = 2.41e5; control promoter light, run 1, well b = 2.22e5; uninduced reporter light, run 1, well a = 17688.
CG14654 (retired record) scored induced reporter light, run 1, well a = 1.37e5; induced reporter light, run 1, well b = 1.06e5; control promoter light, run 1, well a = 1.27e5; control promoter light, run 1, well b = 1.15e5; uninduced reporter light, run 1, well a = 9440.
With knock-down of stj, the record shows induced reporter light, run 1, well a = 1.56e5; induced reporter light, run 1, well b = 1.52e5; control promoter light, run 1, well a = 1.65e5; control promoter light, run 1, well b = 1.59e5; uninduced reporter light, run 1, well a = 14145.
For Obp58c the deposit lists induced reporter light, run 1, well a = 1.83e5; induced reporter light, run 1, well b = 1.68e5; control promoter light, run 1, well a = 1.46e5; control promoter light, run 1, well b = 1.40e5; uninduced reporter light, run 1, well a = 13780.
For CG8031, the values are induced reporter light, run 1, well a = 1.74e5; induced reporter light, run 1, well b = 1.35e5; control promoter light, run 1, well a = 1.07e5; control promoter light, run 1, well b = 1.04e5; uninduced reporter light, run 1, well a = 8675.
CG5276 gave induced reporter light, run 1, well a = 1.17e5; induced reporter light, run 1, well b = 1.07e5; control promoter light, run 1, well a = 90545; control promoter light, run 1, well b = 86385; uninduced reporter light, run 1, well a = 8330.
Depletion of CG5910 gave: induced reporter light, run 1, well a = 1.21e5; induced reporter light, run 1, well b = 1.44e5; control promoter light, run 1, well a = 1.04e5; control promoter light, run 1, well b = 91505; uninduced reporter light, run 1, well a = 7475.
Against sun, the values are induced reporter light, run 1, well a = 56520; induced reporter light, run 1, well b = 47570; control promoter light, run 1, well a = 60930; control promoter light, run 1, well b = 45915; uninduced reporter light, run 1, well a = 6670.
CG9018 showed induced reporter light, run 1, well a = 1.18e5; induced reporter light, run 1, well b = 1.39e5; control promoter light, run 1, well a = 2.07e5; control promoter light, run 1, well b = 2.42e5; uninduced reporter light, run 1, well a = 6095.
CG30398 scored induced reporter light, run 1, well a = 87070; induced reporter light, run 1, well b = 82255; control promoter light, run 1, well a = 89615; control promoter light, run 1, well b = 76210; uninduced reporter light, run 1, well a = 8775.
After knock-down of TBC1D23 the results were induced reporter light, run 1, well a = 88380; induced reporter light, run 1, well b = 96225; control promoter light, run 1, well a = 78735; control promoter light, run 1, well b = 47210; uninduced reporter light, run 1, well a = 7820.
With knock-down of yip7 the results were induced reporter light, run 1, well a = 2.60e5; induced reporter light, run 1, well b = 2.90e5; control promoter light, run 1, well a = 3.62e5; control promoter light, run 1, well b = 3.05e5; uninduced reporter light, run 1, well a = 15265.
Against ReepB, the values are induced reporter light, run 1, well a = 1.89e5; induced reporter light, run 1, well b = 1.30e5; control promoter light, run 1, well a = 1.49e5; control promoter light, run 1, well b = 1.94e5; uninduced reporter light, run 1, well a = 12442.
Depletion of Chsy #1 resulted in: induced reporter light, run 1, well a = 69665; induced reporter light, run 1, well b = 47845; control promoter light, run 1, well a = 62315; control promoter light, run 1, well b = 62020; uninduced reporter light, run 1, well a = 8410.
For Chsy #2, the entry reads induced reporter light, run 1, well a = 77460; induced reporter light, run 1, well b = 82045; control promoter light, run 1, well a = 92545; control promoter light, run 1, well b = 69965; uninduced reporter light, run 1, well a = 12140.

Ordered by “induced reporter light, run 1, well a” (high to low): some entries from above
Obp58c → induced reporter light, run 1, well a = 1.83e5; induced reporter light, run 1, well b = 1.68e5; control promoter light, run 1, well a = 1.46e5; control promoter light, run 1, well b = 1.40e5; uninduced reporter light, run 1, well a = 13780
CG8031 → induced reporter light, run 1, well a = 1.74e5; induced reporter light, run 1, well b = 1.35e5; control promoter light, run 1, well a = 1.07e5; control promoter light, run 1, well b = 1.04e5; uninduced reporter light, run 1, well a = 8675
CG5276 → induced reporter light, run 1, well a = 1.17e5; induced reporter light, run 1, well b = 1.07e5; control promoter light, run 1, well a = 90545; control promoter light, run 1, well b = 86385; uninduced reporter light, run 1, well a = 8330
